{"source": "the supplement of paper PMC12764529", "key": {"[1]": {"test": "folding stability dG unfold from trypsin proteolysis; higher = more stable", "method_in_brief": "(§1)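 K50 was inferred by Bayesian fitting of sequencing counts obtained after protease digestion of designed mini-proteins. Unfolding free energy was derived by comparison with a sequence-predicted unfolded-state K50 and a shared folded-state K50, for each protease or both combined. The mini-proteins were under 80 residues, had no cysteine, were carried in a PA-tagged cDNA display construct, and were kept only if AlphaFold2 dimer inter-PAE exceeded 15.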"}, "[2]": {"test": "folding stability dG unfold from chymotrypsin proteolysis; higher = more stable", "method_in_brief": "as §1"}, "[3]": {"test": "folding stability dG unfold (combined trypsin and chymotrypsin); higher = more stable", "method_in_brief": "as §1"}}, "note": "± gives the half width of the 95% confidence interval. For many entries, trypsin and chymotrypsin gave values far apart.", "data": [{"sequence": "GEERTFSLWVKTKSPQEARQLQEKIKDILRGPGYEVKIDDVEVSPNGWMKVNITMRPGMPQDRLRDALRKIS [r1_485_TrROS]", "values": [{"measurement": "folding stability dG unfold", "setting": "[1]", "result": "3.93 ± 0.082", "unit": "kcal/mol"}, {"measurement": "folding stability dG unfold", "setting": "[2]", "result": "5.24 ± 0.06", "unit": "kcal/mol"}, {"measurement": "folding stability dG unfold", "setting": "[3]", "result": "4.99 ± 0.07", "unit": "kcal/mol"}]}, {"sequence": "SAGGSAGGSAGGSMTSIKITYPDGSTKSASVSVDPNTGKVTTTFTDYTLSPDAKFTTISSAGGSAGGSAGGS [r10_306_JUSTAS]", "values": [{"measurement": "folding stability dG unfold", "setting": "[1]", "result": "0.372 ± 0.027", "unit": "kcal/mol"}, {"measurement": "folding stability dG unfold", "setting": "[2]", "result": "0.202 ± 0.11", "unit": "kcal/mol"}, {"measurement": "folding stability dG unfold", "setting": "[3]", "result": "0.325 ± 0.073", "unit": "kcal/mol"}]}, {"sequence": "SLRDIAKEIAEKAGMDPEDVEINVETEPDPKNGKPRLRITVSIEHPNRKYMIKIDFQDGEIEEIMPLEDISA [r9_1219_TrROS]", "values": [{"measurement": "folding stability dG unfold", "setting": "[1]", "result": "1.66 ± 0.099", "unit": "kcal/mol"}, {"measurement": "folding stability dG unfold", "setting": "[2]", "result": "1.97 ± 0.089", "unit": "kcal/mol"}, {"measurement": "folding stability dG unfold", "setting": "[3]", "result": "1.74 ± 0.3", "unit": "kcal/mol"}]}, {"sequence": "SAGGSAGGGRYLVLIEFENGFPLAYVFPSPEDVVEHTRLLEERLGYPIKRIEVYKIDPNGKAYASAGGSAGG [r6_162_TrMRF]", "values": [{"measurement": "folding stability dG unfold", "setting": "[1]", "result": "2.41 ± 0.053", "unit": "kcal/mol"}, {"measurement": "folding stability dG unfold", "setting": "[2]", "result": "2.42 ± 0.12", "unit": "kcal/mol"}, {"measurement": "folding stability dG unfold", "setting": "[3]", "result": "2.53 ± 0.086", "unit": "kcal/mol"}]}, {"sequence": "SAGGLKYRILIEVPLKVKIPGSGKEKTLSKFLEIEIEAESEEEALEFAKKLLEELSPENAKIVSIEKLSAGG [r19_209_TrMRF]", "values": [{"measurement": "folding stability dG unfold", "setting": "[1]", "result": "2.04 ± 0.036", "unit": "kcal/mol"}, {"measurement": "folding stability dG unfold", "setting": "[2]", "result": "4.82 ± 0.056", "unit": "kcal/mol"}, {"measurement": "folding stability dG unfold", "setting": "[3]", "result": "4.41 ± 0.096", "unit": "kcal/mol"}]}, {"sequence": "PGYIIKIKIKYRYKYEREKDPDGETRPRMKPVQREIVINFPPDNLDDLLDELNIPPDYIDRVEIEVMPPGES [r1_351_TrROS]", "values": [{"measurement": "folding stability dG unfold", "setting": "[1]", "result": "0.76 ± 0.097", "unit": "kcal/mol"}, {"measurement": "folding stability dG unfold", "setting": "[2]", "result": "2.79 ± 0.1", "unit": "kcal/mol"}, {"measurement": "folding stability dG unfold", "setting": "[3]", "result": "2.17 ± 0.28", "unit": "kcal/mol"}]}, {"sequence": "SKVVLAHVYVELPNGERRELVVPFDLPPGVTVEELLKALNIPKEVLKKVTIVLVSFDGGPPEVKTVTVTDSA [r9_755_TrMRF]", "values": [{"measurement": "folding stability dG unfold", "setting": "[1]", "result": "1.98 ± 0.057", "unit": "kcal/mol"}, {"measurement": "folding stability dG unfold", "setting": "[2]", "result": "4.17 ± 0.046", "unit": "kcal/mol"}, {"measurement": "folding stability dG unfold", "setting": "[3]", "result": "3.67 ± 0.066", "unit": "kcal/mol"}]}, {"sequence": "SAGGDYVVTITEEEVEVGGKKYKTLTIKVVKITEVEEVNGKKKVKVEVKEITIKKEDLDKLKELGIKISAGG [r13_670_TrROS_Hall]", "values": [{"measurement": "folding stability dG unfold", "setting": "[1]", "result": "1.2 ± 0.14", "unit": "kcal/mol"}, {"measurement": "folding stability dG unfold", "setting": "[2]", "result": "3.41 ± 0.13", "unit": "kcal/mol"}, {"measurement": "folding stability dG unfold", "setting": "[3]", "result": "2.68 ± 0.35", "unit": "kcal/mol"}]}, {"sequence": "SAGGLKPGDWVIIMTIEFPFPFPDDDGKPQEWRIKITIWVPVEYDPPDGKLEIDNIFINIEIVPPDQISAGG [r13_312_TrROS]", "values": [{"measurement": "folding stability dG unfold", "setting": "[1]", "result": "3.52 ± 0.22", "unit": "kcal/mol"}, {"measurement": "folding stability dG unfold", "setting": "[2]", "result": "4.55 ± 0.1", "unit": "kcal/mol"}, {"measurement": "folding stability dG unfold", "setting": "[3]", "result": "4.44 ± 0.18", "unit": "kcal/mol"}]}, {"sequence": "SAGGGYGWLMFSVPIKFEFNFRDPDGQPIGPWRMEITIMVYAPVPLPPPPPPKEEKVDPNDKNDEDADSAGG [r13_508_TrROS]", "values": [{"measurement": "folding stability dG unfold", "setting": "[1]", "result": "2.67 ± 0.091", "unit": "kcal/mol"}, {"measurement": "folding stability dG unfold", "setting": "[2]", "result": "4.99 ± 0.083", "unit": "kcal/mol"}, {"measurement": "folding stability dG unfold", "setting": "[3]", "result": "4.63 ± 0.13", "unit": "kcal/mol"}]}, {"sequence": "SAGGSARFTSIDIEKHGDYISVRATWRNPNGNWQEMNIMIRVPPVPPPPPIKPKRDPDNGEPKYDNSAGGSA [r15_335_TrROS]", "values": [{"measurement": "folding stability dG unfold", "setting": "[1]", "result": "2.19 ± 0.087", "unit": "kcal/mol"}, {"measurement": "folding stability dG unfold", "setting": "[2]", "result": "4.47 ± 0.43", "unit": "kcal/mol"}, {"measurement": "folding stability dG unfold", "setting": "[3]", "result": "3.47 ± 0.33", "unit": "kcal/mol"}]}, {"sequence": "SAGGSAGGSADGNKPPEIKINLEVERHPNGMVEITATLHWPGGKEFPVRIMYNPDKIFIEISAGGSAGGSAG [r3_259_TrROS]", "values": [{"measurement": "folding stability dG unfold", "setting": "[1]", "result": "2.95 ± 0.31", "unit": "kcal/mol"}, {"measurement": "folding stability dG unfold", "setting": "[2]", "result": "3.4 ± 0.16", "unit": "kcal/mol"}, {"measurement": "folding stability dG unfold", "setting": "[3]", "result": "3.19 ± 0.14", "unit": "kcal/mol"}]}, {"sequence": "SAMKIEYDSKTGTLTIKITIPIIKKLNPEEKKKLAEEIKNFIKKKFPNAKIEVHILPVESPEEAKKILKSAG [r14_406_TrMRF]", "values": [{"measurement": "folding stability dG unfold", "setting": "[1]", "result": "1 ± 0.1", "unit": "kcal/mol"}, {"measurement": "folding stability dG unfold", "setting": "[2]", "result": "3.46 ± 0.089", "unit": "kcal/mol"}, {"measurement": "folding stability dG unfold", "setting": "[3]", "result": "2.71 ± 0.36", "unit": "kcal/mol"}]}, {"sequence": "SAGGSAGGSAGGEKEPVTLLVVRVDGKLVVVSEEELKKLAEELNVEVEVRLVTVTKEELKSAGGSAGGSAGG [r7_185_TrROS_Hall]", "values": [{"measurement": "folding stability dG unfold", "setting": "[1]", "result": "0.567 ± 0.038", "unit": "kcal/mol"}, {"measurement": "folding stability dG unfold", "setting": "[2]", "result": "1.94 ± 0.033", "unit": "kcal/mol"}, {"measurement": "folding stability dG unfold", "setting": "[3]", "result": "1.57 ± 0.085", "unit": "kcal/mol"}]}, {"sequence": "SAKITIYSPNGRPIEIEIPPGYKIENVHIHPGMGHIAIKFKPPGDGKEYSIMLHVHPGGDMDISIQPRESAG [r14_311_TrROS]", "values": [{"measurement": "folding stability dG unfold", "setting": "[1]", "result": "1.94 ± 0.09", "unit": "kcal/mol"}, {"measurement": "folding stability dG unfold", "setting": "[2]", "result": "4.2 ± 0.16", "unit": "kcal/mol"}, {"measurement": "folding stability dG unfold", "setting": "[3]", "result": "3.39 ± 0.18", "unit": "kcal/mol"}]}, {"sequence": "EKPEVKIKIELTLNEDGTLTATAYNEETGEIVEVTITVDEDGNVTITVKTKRFKKEEGKIETVEKTITLPKS [r1_45_TrROS_Hall]", "values": [{"measurement": "folding stability dG unfold", "setting": "[1]", "result": "1.06 ± 0.13", "unit": "kcal/mol"}, {"measurement": "folding stability dG unfold", "setting": "[2]", "result": "3.47 ± 0.11", "unit": "kcal/mol"}, {"measurement": "folding stability dG unfold", "setting": "[3]", "result": "2.84 ± 0.38", "unit": "kcal/mol"}]}, {"sequence": "SAGFEIKEVERTPNGMLKLTYELPGLRVKITWSPNRIESIAIEPLPPVPPPPKVPMERDPEDGNWKWKSAGG [r19_254_TrROS]", "values": [{"measurement": "folding stability dG unfold", "setting": "[1]", "result": "0.455 ± 0.17", "unit": "kcal/mol"}, {"measurement": "folding stability dG unfold", "setting": "[2]", "result": "3.17 ± 0.062", "unit": "kcal/mol"}, {"measurement": "folding stability dG unfold", "setting": "[3]", "result": "2.26 ± 0.51", "unit": "kcal/mol"}]}, {"sequence": "SAGGSKIKIKLPDGSTIEIEVKGDTVKIKITVNGKTYTFELKVGETFTITFKDGTTLTIKLPKKKKSAGGSA [r2_57_TrROS_Hall]", "values": [{"measurement": "folding stability dG unfold", "setting": "[1]", "result": "2.45 ± 0.2", "unit": "kcal/mol"}, {"measurement": "folding stability dG unfold", "setting": "[2]", "result": "5.33 ± 0.21", "unit": "kcal/mol"}, {"measurement": "folding stability dG unfold", "setting": "[3]", "result": "5.12 ± 0.37", "unit": "kcal/mol"}]}, {"sequence": "SAGGLIEAIKEAIDQAPPGDEEVTIPIRFPNGTFVIEIRREKDKYKIEIEMQNPNGQKQEITITIEVSAGGS [r16_642_TrROS]", "values": [{"measurement": "folding stability dG unfold", "setting": "[1]", "result": "1.43 ± 0.091", "unit": "kcal/mol"}, {"measurement": "folding stability dG unfold", "setting": "[2]", "result": "1.69 ± 0.089", "unit": "kcal/mol"}, {"measurement": "folding stability dG unfold", "setting": "[3]", "result": "1.65 ± 0.12", "unit": "kcal/mol"}]}, {"sequence": "SAGGSAGGSKETLTIKIKVEVKDENGEKKEVTVTLTIKAETKEEAEALLKELKEKYPNVKVEPSAGGSAGGS [r12_1043_TrROS_Hall]", "values": [{"measurement": "folding stability dG unfold", "setting": "[1]", "result": "2.7 ± 0.38", "unit": "kcal/mol"}, {"measurement": "folding stability dG unfold", "setting": "[2]", "result": "2.9 ± 0.11", "unit": "kcal/mol"}, {"measurement": "folding stability dG unfold", "setting": "[3]", "result": "2.93 ± 0.23", "unit": "kcal/mol"}]}, {"sequence": "SAGGSAGGSAGMTVTTITKTYPFDPNKSLSFTVPPGATITDKKTDADIAKGTVTVTVTVASAGGSAGGSAGG [r11_701_JUSTAS]", "values": [{"measurement": "folding stability dG unfold", "setting": "[1]", "result": "0.345 ± 0.053", "unit": "kcal/mol"}, {"measurement": "folding stability dG unfold", "setting": "[2]", "result": "0.355 ± 0.13", "unit": "kcal/mol"}, {"measurement": "folding stability dG unfold", "setting": "[3]", "result": "0.436 ± 0.13", "unit": "kcal/mol"}]}]}
